Some of these results come from one statement about several compounds together. For at least one compound, name, drawing or mass did not settle the structure.
Assay: Evaluation of solubility in solvent
Type: physicochemical
Set-up: key: ◯: lubricant is easily soluble in each solvent; x: lubricant is insoluble in solvent
Experimental: Solubility of lubricants which were used in Examples 1 to 11 and Comparative Example 3 in each of ethanol, acetone and toluene was evaluated. Evaluation results of solubility of the lubricants are shown in Table 10 by evaluation criteria as defined as follows: […]
Solubility of lubricants which were used in Examples 21 to 37 in each of ethanol, acetone and toluene was evaluated. Evaluation results of solubility of lubricants are shown in Table 19 by evaluation criteria as defined as follows: […]

O=C(O)CC(OC(=O)CCCCCCCCCCC(F)(F)C(F)(F)C(F)(F)C(F)(F)F)C(=O)O (stereo not drawn) [Example 2, CF3(CF2)3(CH2)10COOCH(COOH)CH2COOH]
◯: Solubility in Acetone (Table 10) | Solubility in Ethanol (Table 10) | Solubility in Toluene (Table 10)

CCCCCCCCCCCCCCCCCC(=O)OC(CC(=O)O)C(=O)O (stereo not drawn) [Example 3, C17H35COOCH(COOH)CH2COOH]
◯: Solubility in Acetone (Table 10) | Solubility in Ethanol (Table 10) | Solubility in Toluene (Table 10)

O=C(O)CC(OC(=O)C(F)(F)C(F)(F)C(F)(F)C(F)(F)C(F)(F)C(F)(F)C(F)(F)C(F)(F)F)C(=O)O (stereo not drawn) [Example 5, CF3(CF2)7COOCH(COOH)CH2COOH]
◯: Solubility in Acetone (Table 10) | Solubility in Ethanol (Table 10) | Solubility in Toluene (Table 10)

O=C(O)CC(CC(=O)OCCC(F)(F)C(F)(F)C(F)(F)C(F)(F)C(F)(F)C(F)(F)C(F)(F)C(F)(F)F)C(=O)O (stereo not drawn) [Example 7, CF3(CF2)7(CH2)2OCOCH2CH(COOH)CH2COOH]
◯: Solubility in Acetone (Table 10) | Solubility in Ethanol (Table 10) | Solubility in Toluene (Table 10)

O=C(O)CC(CC(=O)OCCCCCCC(F)(F)C(F)(F)C(F)(F)C(F)(F)C(F)(F)C(F)(F)C(F)(F)C(F)(F)F)C(=O)O (stereo not drawn) [Example 8, CF3(CF2)7(CH2)6OCOCH2CH(COOH)CH2COOH]
◯: Solubility in Acetone (Table 10) | Solubility in Ethanol (Table 10) | Solubility in Toluene (Table 10)

O=C(O)CC(CC(=O)OCCCCCCCCCCCC(F)(F)C(F)(F)C(F)(F)C(F)(F)C(F)(F)C(F)(F)C(F)(F)C(F)(F)F)C(=O)O (stereo not drawn) [Example 9, CF3(CF2)7(CH2)11OCOCH2CH(COOH)CH2COOH]
◯: Solubility in Acetone (Table 10) | Solubility in Ethanol (Table 10) | Solubility in Toluene (Table 10)

O=C(O)CC(CC(=O)OCCCCCCC(F)(F)C(F)(F)C(F)(F)C(F)(F)F)C(=O)O (stereo not drawn) [Example 10, CF3(CF2)3(CH2)6OCOCH2CH(COOH)CH2COOH]
◯: Solubility in Acetone (Table 10) | Solubility in Ethanol (Table 10) | Solubility in Toluene (Table 10)

CCCCCCCCCCCCCCCCCCOC(=O)CC(CC(=O)O)C(=O)O (stereo not drawn) [Example 11, C18H37OCOCH2CH(COOH)CH2COOH]
◯: Solubility in Acetone (Table 10) | Solubility in Ethanol (Table 10) | Solubility in Toluene (Table 10)

O=C(O)CC(CC(=O)OCCC(F)(F)C(F)(F)C(F)(F)C(F)(F)F)C(=O)O (stereo not drawn) [Example 21, CF3(CF2)3(CH2)2OCOCH2CH(COOH)CH2COOH]
◯: Solubility in Acetone (Table 19) | Solubility in Ethanol (Table 19) | Solubility in Toluene (Table 19)

O=C(O)CC(CC(=O)OCCCCCCCCCCCC(F)(F)C(F)(F)C(F)(F)C(F)(F)C(F)(F)C(F)(F)C(F)(F)C(F)(F)C(F)(F)C(F)(F)F)C(=O)O (stereo not drawn) [Example 22, CF3(CF2)9(CH2)11OCOCH2CH(COOH)CH2COOH]
◯: Solubility in Acetone (Table 19) | Solubility in Ethanol (Table 19) | Solubility in Toluene (Table 19)

O=C(O)CC(CC(=O)OCCCCCCCCCCCC(F)(F)C(F)(F)C(F)(F)C(F)(F)F)C(=O)O (stereo not drawn) [Example 23, CF3(CF2)3(CH2)11OCOCH2CH(COOH)CH2COOH]
◯: Solubility in Acetone (Table 19) | Solubility in Ethanol (Table 19) | Solubility in Toluene (Table 19)

O=C(O)CC(CC(=O)OCCCCCCCCCCCCCC(F)(F)C(F)(F)C(F)(F)C(F)(F)C(F)(F)C(F)(F)C(F)(F)C(F)(F)F)C(=O)O (stereo not drawn) [Example 24, CF3(CF2)7(CH2)13OCOCH2CH(COOH)CH2COOH]
◯: Solubility in Acetone (Table 19) | Solubility in Ethanol (Table 19) | Solubility in Toluene (Table 19)

CCCCCCCCCC(CCCCCCCCOC(=O)CC(CC(=O)O)C(=O)O)C(F)(F)C(F)(F)C(F)(F)C(F)(F)C(F)(F)C(F)(F)C(F)(F)C(F)(F)F (stereo not drawn) [Example 25, CF3(CF2)7CH(C9H19)(CH2)8OCOCH2CH(COOH)CH2COOH]
◯: Solubility in Acetone (Table 19) | Solubility in Ethanol (Table 19) | Solubility in Toluene (Table 19)

CCCCCCC(CC=CCCCCCCCCOC(=O)CC(CC(=O)O)C(=O)O)C(F)(F)C(F)(F)C(F)(F)C(F)(F)C(F)(F)C(F)(F)C(F)(F)C(F)(F)F (stereo not drawn) [Example 26, CF3(CF2)7CH(C6H13)CH2CH═CH(CH2)8OCOCH2CH(COOH)CH2COOH]
◯: Solubility in Acetone (Table 19) | Solubility in Ethanol (Table 19) | Solubility in Toluene (Table 19)

CCCCCCC(CCC(CCCCCCCCOC(=O)CC(CC(=O)O)C(=O)O)CCC(F)(F)C(F)(F)C(F)(F)C(F)(F)C(F)(F)C(F)(F)C(F)(F)C(F)(F)C(F)(F)C(F)(F)F)CCC(F)(F)C(F)(F)C(F)(F)C(F)(F)C(F)(F)C(F)(F)C(F)(F)C(F)(F)C(F)(F)C(F)(F)F (stereo not drawn) [Example 27, CH3(CH2)3(CH2CH2CH(CH2CH2(CF2)9CF3))2(CH2)8OCOCH2CH(COOH)CH2COOH]
◯: Solubility in Acetone (Table 19) | Solubility in Ethanol (Table 19) | Solubility in Toluene (Table 19)

CCCCCCCCCCCCCCCCCCC(CC(=O)OC(CC(=O)O)C(=O)O)C(=O)OCCC(F)(F)C(F)(F)C(F)(F)C(F)(F)C(F)(F)C(F)(F)C(F)(F)C(F)(F)F (stereo not drawn) [Example 28, CF3(CF2)7(CH2)2OCOCH(C18H37)CH2COOCH(COOH)CH2COOH]
◯: Solubility in Acetone (Table 19) | Solubility in Ethanol (Table 19) | Solubility in Toluene (Table 19)

CCCCCCCCCCCCC(CC(=O)OCCC(F)(F)C(F)(F)C(F)(F)C(F)(F)C(F)(F)C(F)(F)C(F)(F)C(F)(F)F)C(=O)OC(CC(=O)O)C(=O)O (stereo not drawn) [Example 29, CF3(CF2)7(CH2)2OCOCH2CH(C12H25)COOCH(COOH)CH2COOH]
◯: Solubility in Acetone (Table 19) | Solubility in Ethanol (Table 19) | Solubility in Toluene (Table 19)

CCCCCCCCC(CC(=O)OCCC(F)(F)C(F)(F)C(F)(F)C(F)(F)C(F)(F)C(F)(F)C(F)(F)C(F)(F)F)C(=O)OC(CC(=O)O)C(=O)O (stereo not drawn) [Example 30, CF3(CF2)7(CH2)2OCOCH2CH(C8H17)COOCH(COOH)CH2COOH]
◯: Solubility in Acetone (Table 19) | Solubility in Ethanol (Table 19) | Solubility in Toluene (Table 19)

CCCCCCCCCCCCCCCCCCC(CC(=O)OCCC(F)(F)C(F)(F)C(F)(F)C(F)(F)C(F)(F)C(F)(F)C(F)(F)C(F)(F)C(F)(F)C(F)(F)F)C(=O)OC(CC(=O)O)C(=O)O (stereo not drawn) [Example 31, CF3(CF2)9(CH2)2OCOCH2CH(C18H37)COOCH(COOH)CH2COOH]
◯: Solubility in Acetone (Table 19) | Solubility in Ethanol (Table 19) | Solubility in Toluene (Table 19)

CCCCCCCCCCCCCCCCCCC(CC(=O)OCCC(F)(F)C(F)(F)C(F)(F)C(F)(F)F)C(=O)OC(CC(=O)O)C(=O)O (stereo not drawn) [Example 32, CF3(CF2)3(CH2)2OCOCH2CH(C18H37)COOCH(COOH)CH2COOH]
◯: Solubility in Acetone (Table 19) | Solubility in Ethanol (Table 19) | Solubility in Toluene (Table 19)

CCCCCCCCCCCCCCCCCCC(CC(=O)OCCCCCCC(F)(F)C(F)(F)C(F)(F)C(F)(F)C(F)(F)C(F)(F)C(F)(F)C(F)(F)F)C(=O)OC(CC(=O)O)C(=O)O (stereo not drawn) [Example 33, CF3(CF2)7(CH2)6OCOCH2CH(C18H37)COOCH(COOH)CH2COOH]
◯: Solubility in Acetone (Table 19) | Solubility in Ethanol (Table 19) | Solubility in Toluene (Table 19)

CCCCCCCCCCCCCCCCCCC(CC(=O)OCCCCCCCCCCCC(F)(F)C(F)(F)C(F)(F)C(F)(F)C(F)(F)C(F)(F)C(F)(F)C(F)(F)F)C(=O)OC(CC(=O)O)C(=O)O (stereo not drawn) [Example 34, CF3(CF2)7(CH2)11OCOCH2CH(C18H37)COOCH(COOH)CH2COOH]
◯: Solubility in Acetone (Table 19) | Solubility in Ethanol (Table 19) | Solubility in Toluene (Table 19)

CCCCCCCCCC(CCCCCCC)C(CC(=O)OCCC(F)(F)C(F)(F)C(F)(F)C(F)(F)C(F)(F)C(F)(F)C(F)(F)C(F)(F)F)C(=O)OC(CC(=O)O)C(=O)O (stereo not drawn) [Example 36, CF3(CF2)7(CH2)2OCOCH2CH(CH(C7H15)(C9H19)COOCH(COOH)CH2COOH]
◯: Solubility in Acetone (Table 19) | Solubility in Ethanol (Table 19) | Solubility in Toluene (Table 19)

CF3(CF2)7(CH2)2OCOCH2CH(C18H35)COOCH(COOH)CH2COOH [Example 35]
◯: Solubility in Acetone (Table 19) | Solubility in Ethanol (Table 19) | Solubility in Toluene (Table 19)
